These are yes or no findings as the source states them, for the method shown. Binding seen in cells or lysates may run through a third protein.
Target: N3-SCML2A ΔRBR (FLAG-HA-Twin-Strep-tagged SCML2A lacking the RNA-binding region) (human) (UniProt Q9UQR0)
Assay: pull-down; pull-down of epitope-tagged SCML2 from induced 293T-REx; input, flow-through and pull-down blotted for untagged SCML2

Sequences of proteins named here, by UniProt entry; tags and fusion partners are left off. A change or cut given only in a name is not applied to a line headed by its entry.
UniProt Q9UQR0: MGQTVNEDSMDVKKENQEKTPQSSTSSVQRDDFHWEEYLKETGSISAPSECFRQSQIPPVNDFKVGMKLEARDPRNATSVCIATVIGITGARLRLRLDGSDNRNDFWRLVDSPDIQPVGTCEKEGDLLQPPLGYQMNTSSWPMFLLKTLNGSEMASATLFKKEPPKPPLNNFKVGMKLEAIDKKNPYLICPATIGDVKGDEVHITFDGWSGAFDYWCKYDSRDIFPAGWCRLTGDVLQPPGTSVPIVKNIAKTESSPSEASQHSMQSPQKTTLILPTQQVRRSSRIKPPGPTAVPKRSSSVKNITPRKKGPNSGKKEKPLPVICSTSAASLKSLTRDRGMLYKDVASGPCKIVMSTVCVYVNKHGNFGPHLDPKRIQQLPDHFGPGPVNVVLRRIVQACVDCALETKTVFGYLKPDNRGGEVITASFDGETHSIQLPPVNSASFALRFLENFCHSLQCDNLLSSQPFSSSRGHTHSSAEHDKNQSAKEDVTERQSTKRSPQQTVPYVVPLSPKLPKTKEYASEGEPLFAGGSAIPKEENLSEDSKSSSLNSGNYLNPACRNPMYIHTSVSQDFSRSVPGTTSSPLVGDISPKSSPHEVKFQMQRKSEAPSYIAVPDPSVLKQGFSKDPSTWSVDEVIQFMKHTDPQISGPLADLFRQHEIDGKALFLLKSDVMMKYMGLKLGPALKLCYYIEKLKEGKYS

binding: no binding
Substance: SCML2 (endogenous, untagged; isoforms not told apart) (from UniProt Q9UQR0 1-700)

— publication PMC4074974
